The list shows a part of the results.
Tests used:
Assay in all cases: glycan array binding signal (z-score within array); higher = stronger binding
Conditions in all cases: glycan notation: IUPAC condensed, linker removed
[1] = molecular target: Fuc(a1-2)Gal(b1-4)[Fuc(a1-3)]GlcNAc
Summary of the method: (§1)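 Negative Z-scores can be read as non-binding. The Z-score is calculated within each array and then averaged across arrays of one protein sequence at different concentrations or buffers and across linkers. Arrays, 3228 in all, were curated from the Consortium for Functional Glycomics database and kept only where the protein sequence was available.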

[2] = molecular target: Fuc(a1-2)Gal(b1-4)[Fuc(a1-3)]GlcNAc(b1-2)Man(a1-3)[Fuc(a1-2)Gal(b1-4)[Fuc(a1-3)]GlcNAc(b1-2)Man(a1-6)]Man(b1-4)GlcNAc(b1-4)[Fuc(a1-6)]GlcNAc
Summary of the method: as §1

[3] = molecular target: Fuc(a1-2)Gal(b1-4)[Fuc(a1-3)]GlcNAc(b1-2)[Fuc(a1-2)Gal(b1-4)[Fuc(a1-3)]GlcNAc(b1-4)]Man(a1-3)[Fuc(a1-2)Gal(b1-4)[Fuc(a1-3)]GlcNAc(b1-2)Man(a1-6)]Man(b1-4)GlcNAc(b1-4)GlcNAc
Summary of the method: as §1

[4] = molecular target: Fuc(a1-2)Gal(b1-4)[Fuc(a1-3)]GlcNAc(b1-3)Gal(b1-4)[Fuc(a1-3)]GlcNAc
Summary of the method: as §1

[5] = molecular target: Fuc(a1-2)Gal(b1-4)[Fuc(a1-3)]GlcNAc(b1-3)Gal(b1-4)[Fuc(a1-3)]GlcNAc(b1-3)Gal(b1-4)[Fuc(a1-3)]GlcNAc
Summary of the method: as §1

[6] = molecular target: Fuc(a1-2)Gal(b1-4)[Fuc(a1-3)]GlcNAc(b1-3)GalNAc
Summary of the method: as §1

[7] = molecular target: Fuc(a1-2)Gal(b1-4)[Fuc(a1-3)]GlcNAc(b1-3)[Neu5Ac(a2-6)Gal(b1-4)GlcNAc(b1-6)]Gal(b1-4)Glc
Summary of the method: as §1

[8] = molecular target: Fuc(a1-2)Gal3S(b1-4)GlcNAc
Summary of the method: as §1

[9] = molecular target: Fuc(a1-2)Gal6S(b1-3)GlcNAc
Summary of the method: as §1

[10] = molecular target: Fuc(a1-2)Gal6S(b1-3)GlcNAc6S
Summary of the method: as §1

Fuc(a1-2)Gal6S(b1-4)Glc = molecular target: Fuc(a1-2)Gal6S(b1-4)Glc
Summary of the method: as §1

[11] = molecular target: Fuc(a1-2)Gal6S(b1-4)Glc6S
Summary of the method: as §1

Fuc(a1-2)[Gal(a1-3)]Gal = molecular target: Fuc(a1-2)[Gal(a1-3)]Gal
Summary of the method: as §1

[12] = molecular target: Fuc(a1-2)[Gal(a1-3)]Gal(b1-3)GalNAc
Summary of the method: as §1

[13] = molecular target: Fuc(a1-2)[Gal(a1-3)]Gal(b1-3)GalNAc(b1-3)Gal(a1-4)Gal(b1-4)Glc
Summary of the method: as §1

[14] = molecular target: Fuc(a1-2)[Gal(a1-3)]Gal(b1-3)GlcNAc
Summary of the method: as §1

[15] = molecular target: Fuc(a1-2)[Gal(a1-3)]Gal(b1-3)GlcNAc(b1-2)Man(a1-3)[Fuc(a1-2)[Gal(a1-3)]Gal(b1-3)GlcNAc(b1-2)Man(a1-6)]Man(b1-4)GlcNAc(b1-4)GlcNAc
Summary of the method: as §1

[16] = molecular target: Fuc(a1-2)[Gal(a1-3)]Gal(b1-3)GlcNAc(b1-2)Man(a1-3)[Fuc(a1-2)[Gal(a1-3)]Gal(b1-3)GlcNAc(b1-2)Man(a1-6)]Man(b1-4)GlcNAc(b1-4)[Fuc(a1-6)]GlcNAc
Summary of the method: as §1

[17] = molecular target: Fuc(a1-2)[Gal(a1-3)]Gal(b1-3)GlcNAc(b1-3)GalNAc
Summary of the method: as §1

[18] = molecular target: Fuc(a1-2)[Gal(a1-3)]Gal(b1-3)GlcNAc(b1-6)GalNAc
Summary of the method: as §1

[19] = molecular target: Fuc(a1-2)[Gal(a1-3)]Gal(b1-4)Glc
Summary of the method: as §1

[20] = molecular target: Fuc(a1-2)[Gal(a1-3)]Gal(b1-4)GlcNAc
Summary of the method: as §1

[21] = molecular target: Fuc(a1-2)[Gal(a1-3)]Gal(b1-4)GlcNAc(b1-2)Man
Summary of the method: as §1

[22] = molecular target: Fuc(a1-2)[Gal(a1-3)]Gal(b1-4)GlcNAc(b1-2)Man(a1-3)[Fuc(a1-2)[Gal(a1-3)]Gal(b1-4)GlcNAc(b1-2)Man(a1-6)]Man(b1-4)GlcNAc(b1-4)GlcNAc
Summary of the method: as §1

[23] = molecular target: Fuc(a1-2)[Gal(a1-3)]Gal(b1-4)GlcNAc(b1-2)Man(a1-3)[Fuc(a1-2)[Gal(a1-3)]Gal(b1-4)GlcNAc(b1-2)Man(a1-6)]Man(b1-4)GlcNAc(b1-4)[Fuc(a1-6)]GlcNAc
Summary of the method: as §1

[24] = molecular target: Fuc(a1-2)[Gal(a1-3)]Gal(b1-4)GlcNAc(b1-3)GalNAc
Summary of the method: as §1

[25] = molecular target: Fuc(a1-2)[Gal(a1-3)]Gal(b1-4)GlcNAc(b1-3)[Fuc(a1-2)[Gal(a1-3)]Gal(b1-4)GlcNAc(b1-6)]GalNAc
Summary of the method: as §1

[26] = molecular target: Fuc(a1-2)[Gal(a1-3)]Gal(b1-4)GlcNAc(b1-6)GalNAc
Summary of the method: as §1

[27] = molecular target: Fuc(a1-2)[Gal(a1-3)]Gal(b1-4)[Fuc(a1-3)]Glc
Summary of the method: as §1

[28] = molecular target: Fuc(a1-2)[Gal(a1-3)]Gal(b1-4)[Fuc(a1-3)]GlcNAc
Summary of the method: as §1

[29] = molecular target: Fuc(a1-2)[Gal(a1-3)]Gal(b1-4)[Fuc(a1-3)]GlcNAc(b1-3)GalNAc
Summary of the method: as §1

[30] = molecular target: Fuc(a1-2)[Gal(a1-4)]Gal(b1-4)GlcNAc
Summary of the method: as §1

[31] = molecular target: Fuc(a1-2)[GalNAc(a1-3)]Gal
Summary of the method: as §1

[32] = molecular target: Fuc(a1-2)[GalNAc(a1-3)]Gal(b1-3)GalNAc(a1-3)[Fuc(a1-2)]Gal(b1-4)GlcNAc
Summary of the method: as §1

[33] = molecular target: Fuc(a1-2)[GalNAc(a1-3)]Gal(b1-3)GalNAc(b1-3)Gal(a1-4)Gal(b1-4)Glc
Summary of the method: as §1

[34] = molecular target: Fuc(a1-2)[GalNAc(a1-3)]Gal(b1-3)GlcNAc
Summary of the method: as §1

[35] = molecular target: Fuc(a1-2)[GalNAc(a1-3)]Gal(b1-3)GlcNAc(b1-2)Man(a1-3)[Fuc(a1-2)[GalNAc(a1-3)]Gal(b1-3)GlcNAc(b1-2)Man(a1-6)]Man(b1-4)GlcNAc(b1-4)GlcNAc
Summary of the method: as §1

[36] = molecular target: Fuc(a1-2)[GalNAc(a1-3)]Gal(b1-3)GlcNAc(b1-2)Man(a1-3)[Fuc(a1-2)[GalNAc(a1-3)]Gal(b1-3)GlcNAc(b1-2)Man(a1-6)]Man(b1-4)GlcNAc(b1-4)[Fuc(a1-6)]GlcNAc
Summary of the method: as §1

B1: FGF1 (Homo sapiens), P05230 (protein)
chain: MAEGEITTFTALTEKFNLPPGNYKKPKLLYSNGGHFLRILPDGTVDGTRDRSDQHIQLQLSAESVGEVYIKSTETGQYLAMTDGLLYGSQTPNEECLFLERLEENHYNTYISKHAEKNWFVGLKKNGSCKRGPRTHYGQAILFLPLPASSED
[1]
  glycan array binding signal (z-score): -0.25
[2]
  glycan array binding signal (z-score): 0.112
[3]
  glycan array binding signal (z-score): 0.987
[4]
  glycan array binding signal (z-score): -0.549
[5]
  glycan array binding signal (z-score): -0.413
[6]
  glycan array binding signal (z-score): 1.94
[7]
  glycan array binding signal (z-score): -0.764
[8]
  glycan array binding signal (z-score): -0.858
[9]
  glycan array binding signal (z-score): 0.087
[10]
  glycan array binding signal (z-score): 2.68
Fuc(a1-2)Gal6S(b1-4)Glc
  glycan array binding signal (z-score): 0.397
[11]
  glycan array binding signal (z-score): 0.797
Fuc(a1-2)[Gal(a1-3)]Gal
  glycan array binding signal (z-score): -0.484
[12]
  glycan array binding signal (z-score): 0.883
[13]
  glycan array binding signal (z-score): -1.07
[14]
  glycan array binding signal (z-score): 0.921
[15]
  glycan array binding signal (z-score): -0.245
[16]
  glycan array binding signal (z-score): 0.921
[17]
  glycan array binding signal (z-score): -0.256
[18]
  glycan array binding signal (z-score): -0.314
[19]
  glycan array binding signal (z-score): -0.11
[20]
  glycan array binding signal (z-score): -0.843
[21]
  glycan array binding signal (z-score): -0.098
[22]
  glycan array binding signal (z-score): -0.325
[23]
  glycan array binding signal (z-score): -0.443
[24]
  glycan array binding signal (z-score): -0.631
[25]
  glycan array binding signal (z-score): 1.24
[26]
  glycan array binding signal (z-score): -0.234
[27]
  glycan array binding signal (z-score): -0.923
[28]
  glycan array binding signal (z-score): 0.863
[29]
  glycan array binding signal (z-score): 0.787
[30]
  glycan array binding signal (z-score): 2.55
[31]
  glycan array binding signal (z-score): -0.401
[32]
  glycan array binding signal (z-score): -0.821
[33]
  glycan array binding signal (z-score): -0.725
[34]
  glycan array binding signal (z-score): 0.393
[35]
  glycan array binding signal (z-score): -0.758
[36]
  glycan array binding signal (z-score): -0.836
